Source: PMC7290032

Amino acid sequences for entries named in this document (tags omitted).
UniProt P27694: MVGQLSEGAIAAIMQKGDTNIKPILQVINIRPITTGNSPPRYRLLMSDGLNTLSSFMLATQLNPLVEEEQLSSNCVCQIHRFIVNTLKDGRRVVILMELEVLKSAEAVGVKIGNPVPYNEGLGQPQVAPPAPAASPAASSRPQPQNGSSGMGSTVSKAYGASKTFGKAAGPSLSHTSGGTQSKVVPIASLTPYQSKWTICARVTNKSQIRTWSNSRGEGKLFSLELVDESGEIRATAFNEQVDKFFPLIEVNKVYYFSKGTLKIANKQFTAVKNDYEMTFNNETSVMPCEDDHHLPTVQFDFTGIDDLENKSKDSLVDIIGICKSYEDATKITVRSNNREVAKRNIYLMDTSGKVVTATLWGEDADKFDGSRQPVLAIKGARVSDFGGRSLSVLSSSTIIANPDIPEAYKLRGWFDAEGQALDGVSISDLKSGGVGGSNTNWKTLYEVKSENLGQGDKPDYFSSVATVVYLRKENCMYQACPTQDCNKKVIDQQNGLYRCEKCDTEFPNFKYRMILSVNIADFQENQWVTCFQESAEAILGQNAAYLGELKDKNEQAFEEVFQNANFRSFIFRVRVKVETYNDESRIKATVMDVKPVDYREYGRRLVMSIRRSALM

T1: MCM8IP-HA (human) (UniProt Q8N3J3)
T1 sequence: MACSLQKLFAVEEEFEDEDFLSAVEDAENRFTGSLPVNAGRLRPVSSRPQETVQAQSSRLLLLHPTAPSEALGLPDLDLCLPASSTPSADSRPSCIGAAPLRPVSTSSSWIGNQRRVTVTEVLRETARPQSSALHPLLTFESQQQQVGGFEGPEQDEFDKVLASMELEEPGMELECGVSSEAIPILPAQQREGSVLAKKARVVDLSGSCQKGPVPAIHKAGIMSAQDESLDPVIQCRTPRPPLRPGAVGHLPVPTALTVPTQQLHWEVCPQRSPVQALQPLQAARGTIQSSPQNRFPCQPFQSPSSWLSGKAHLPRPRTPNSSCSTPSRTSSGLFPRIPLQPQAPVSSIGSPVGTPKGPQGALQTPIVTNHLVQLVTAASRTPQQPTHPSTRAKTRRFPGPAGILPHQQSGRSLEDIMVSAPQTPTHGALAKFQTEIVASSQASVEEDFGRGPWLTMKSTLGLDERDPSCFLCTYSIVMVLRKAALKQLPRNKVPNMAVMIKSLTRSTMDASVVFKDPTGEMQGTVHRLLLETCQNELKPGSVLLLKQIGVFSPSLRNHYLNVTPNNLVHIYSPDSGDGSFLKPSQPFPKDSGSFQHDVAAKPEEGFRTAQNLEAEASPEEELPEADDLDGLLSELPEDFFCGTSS

T2: BirA*-MCM8IP (human) (UniProt Q8N3J3)
T2 sequence: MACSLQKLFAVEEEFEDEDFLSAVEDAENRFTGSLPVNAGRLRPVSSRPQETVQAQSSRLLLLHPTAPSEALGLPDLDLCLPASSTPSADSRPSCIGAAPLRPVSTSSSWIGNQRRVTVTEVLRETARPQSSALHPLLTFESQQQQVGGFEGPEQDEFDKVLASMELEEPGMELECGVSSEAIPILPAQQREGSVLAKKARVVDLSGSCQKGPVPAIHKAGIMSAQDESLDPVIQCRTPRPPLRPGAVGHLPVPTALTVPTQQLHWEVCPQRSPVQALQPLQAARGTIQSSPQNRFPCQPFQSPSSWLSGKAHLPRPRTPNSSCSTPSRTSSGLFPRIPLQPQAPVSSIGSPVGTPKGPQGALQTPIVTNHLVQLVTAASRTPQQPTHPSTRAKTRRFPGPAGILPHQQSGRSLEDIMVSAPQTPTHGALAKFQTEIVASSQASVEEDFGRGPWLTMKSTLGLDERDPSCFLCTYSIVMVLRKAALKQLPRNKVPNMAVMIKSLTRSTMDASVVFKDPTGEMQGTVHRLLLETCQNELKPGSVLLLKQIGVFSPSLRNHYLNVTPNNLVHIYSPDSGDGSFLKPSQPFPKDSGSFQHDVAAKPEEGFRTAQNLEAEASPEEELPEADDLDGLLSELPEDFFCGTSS

T3: MCM8IP-BirA* (human) (UniProt Q8N3J3)
T3 sequence: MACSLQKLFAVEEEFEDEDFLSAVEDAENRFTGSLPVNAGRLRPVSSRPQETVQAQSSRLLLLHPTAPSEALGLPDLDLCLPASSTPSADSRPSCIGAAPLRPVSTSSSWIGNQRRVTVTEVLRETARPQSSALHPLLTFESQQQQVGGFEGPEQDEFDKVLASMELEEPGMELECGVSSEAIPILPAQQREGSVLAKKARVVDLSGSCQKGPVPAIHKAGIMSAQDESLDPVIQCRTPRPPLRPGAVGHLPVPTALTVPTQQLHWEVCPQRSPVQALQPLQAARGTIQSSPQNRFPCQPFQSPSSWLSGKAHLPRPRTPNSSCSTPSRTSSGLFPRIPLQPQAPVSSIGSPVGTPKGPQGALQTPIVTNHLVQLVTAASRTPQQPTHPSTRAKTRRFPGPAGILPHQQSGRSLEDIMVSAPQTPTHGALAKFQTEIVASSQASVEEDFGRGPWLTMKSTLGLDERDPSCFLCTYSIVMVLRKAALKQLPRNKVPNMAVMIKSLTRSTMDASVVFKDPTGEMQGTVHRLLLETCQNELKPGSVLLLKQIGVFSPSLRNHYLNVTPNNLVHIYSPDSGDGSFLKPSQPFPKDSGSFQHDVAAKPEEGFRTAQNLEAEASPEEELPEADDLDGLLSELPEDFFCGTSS


Experiments:
MCM8IP-HA (human) = molecular target: T1, MCM8IP-HA (human); assay: affinity purification with mass spectrometry; anti-HA immunoprecipitation from HEK293T stably expressing MCM8IP-FLAG-HA against GFP-FLAG-HA; gel slices, LC-MS/MS; at least 5-fold enriched
BirA*-MCM8IP (human) = molecular target: T2, BirA*-MCM8IP (human); assay: proximity labelling; BioID with mass spectrometry: BirA*-MCM8IP or MCM8IP-BirA* against BirA* alone in HU-treated HEK293T T-REx; RIPA lysis, streptavidin beads; at least 5-fold enriched
MCM8IP-BirA* (human) = molecular target: T3, MCM8IP-BirA* (human); assay: as above
BirA*-RPA1 [1] = molecular target: BirA*-RPA1 (UniProt P27694); assay: proximity labelling; small-scale BioID: doxycycline-induced BirA* fusion in HEK293T T-REx, 50 µM biotin 18-24 h, untreated or with HU, cisplatin or olaparib; RIPA lysis, streptavidin beads, western blot
BirA*-RPA1 [2] = molecular target: BirA*-RPA1 (UniProt P27694); assay: proximity labelling; BioID with mass spectrometry: BirA*-RPA1 against BirA* alone in HU-treated HEK293T T-REx; lysis in 6 M urea, streptavidin beads; two or more peptides, at least 3-fold enriched

binding (MCM8IP-HA (human))	binding (BirA*-MCM8IP (human))	binding (MCM8IP-BirA* (human))	binding (BirA*-RPA1 [1])	binding (BirA*-RPA1 [2])	Binder
binds	binds	binds			SMARCAL1 (protein, UniProt Q9NZC9 1-954) MSLPLTEEQRKKIEENRQKALARRAEKLLAEQHQRTSSGTSIAGNPFQAKQGPSQNFPRESCKPVSHGVIFKQQNLSSSSNADQRPHDSHSFQAKGIWKKPEEMPTACPGHSPRSQMALTGISPPLAQSPPEVPKQQLLSYELGQGHAQASPEIRFTPFANPTHKPLAKPKSSQETPAHSSGQPPRDAKLEAKTAKASPSGQNISYIHSSSESVTPRTEGRLQQKSGSSVQKGVNSQKGKCVRNGDRFQVLIGYNAELIAVFKTLPSKNYDPDTKTWNFSMNDYSALMKAAQSLPTVNLQPLEWAYGSSESPSTSSEGQAGLPSAPSLSFVKGRCMLISRAYFEADISYSQDLIALFKQMDSRRYDVKTRKWSFLLEEHSKLIAKVRCLPQVQLDPLPTTLTLAFASQLKKTSLSLTPDVPEADLSEVDPKLVSNLMPFQRAGVNFAIAKGGRLLLADDMGLGKTIQAICIAAFYRKEWPLLVVVPSSVRFTWEQAFLRWLPSLSPDCINVVVTGKDRLTAGLINIVSFDLLSKLEKQLKTPFKVVIIDESHFLKNSRTARCRAAMPVLKVAKRVILLSGTPAMSRPAELYTQIIAVKPTFFPQFHAFGLRYCDAKRMPWGWDYSGSSNLGELKLLLEEAVMLRRLKSDVLSQLPAKQRKIVVIAPGRINARTRAALDAAAKEMTTKDKTKQQQKDALILFFNRTAEAKIPSVIEYILDLLESGREKFLVFAHHKVVLDAITQELERKHVQHIRIDGSTSSAEREDLCQQFQLSERHAVAVLSITAANMGLTFSSADLVVFAELFWNPGVLIQAEDRVHRIGQTSSVGIHYLVAKGTADDYLWPLIQEKIKVLAEAGLSETNFSEMTESTDYLYKDPKQQKIYDLFQKSFEKEGSDMELLEAAESFDPGSASGTSGSSSQNMGDTLDESSLTASPQKKRRFEFFDNWDSFTSPL
			binds	binds	MCM8IP (endogenous) (protein, UniProt Q8N3J3 1-647) MACSLQKLFAVEEEFEDEDFLSAVEDAENRFTGSLPVNAGRLRPVSSRPQETVQAQSSRLLLLHPTAPSEALGLPDLDLCLPASSTPSADSRPSCIGAAPLRPVSTSSSWIGNQRRVTVTEVLRETARPQSSALHPLLTFESQQQQVGGFEGPEQDEFDKVLASMELEEPGMELECGVSSEAIPILPAQQREGSVLAKKARVVDLSGSCQKGPVPAIHKAGIMSAQDESLDPVIQCRTPRPPLRPGAVGHLPVPTALTVPTQQLHWEVCPQRSPVQALQPLQAARGTIQSSPQNRFPCQPFQSPSSWLSGKAHLPRPRTPNSSCSTPSRTSSGLFPRIPLQPQAPVSSIGSPVGTPKGPQGALQTPIVTNHLVQLVTAASRTPQQPTHPSTRAKTRRFPGPAGILPHQQSGRSLEDIMVSAPQTPTHGALAKFQTEIVASSQASVEEDFGRGPWLTMKSTLGLDERDPSCFLCTYSIVMVLRKQAALKQLPRNKVPNMAVMIKSLTRSTMDASVVFKDPTGEMQGTVHRLLLETCQNELKPGSVLLLKQIGVFSPSLRNHYLNVTPNNLVHIYSPDSGDGSFLKPSQPFPKDSGSFQHDVAAKPEEGFRTAQNLEAEASPEEELPEADDLDGLLSELPEDFFCGTSS

No constants are given. Whether binding was seen depends on the method and setting. In cells and extracts the contact can be indirect. A yes stands for co-enrichment or nearness to the bait. Other partners may have been found. For some assays here: Sequences can lack the tags named with a protein.
